Data taken from paper PMC5140063.
No constants are given. Whether binding was seen depends on the method and setting. In cells and extracts the contact can be indirect. Some entries that bind do so weakly or less than the wild type. Where a sequence is shown, tags or fusion partners need not be part of it.

Sequences of proteins named here, by UniProt entry; tags and fusion partners are left off.
UniProt P53566: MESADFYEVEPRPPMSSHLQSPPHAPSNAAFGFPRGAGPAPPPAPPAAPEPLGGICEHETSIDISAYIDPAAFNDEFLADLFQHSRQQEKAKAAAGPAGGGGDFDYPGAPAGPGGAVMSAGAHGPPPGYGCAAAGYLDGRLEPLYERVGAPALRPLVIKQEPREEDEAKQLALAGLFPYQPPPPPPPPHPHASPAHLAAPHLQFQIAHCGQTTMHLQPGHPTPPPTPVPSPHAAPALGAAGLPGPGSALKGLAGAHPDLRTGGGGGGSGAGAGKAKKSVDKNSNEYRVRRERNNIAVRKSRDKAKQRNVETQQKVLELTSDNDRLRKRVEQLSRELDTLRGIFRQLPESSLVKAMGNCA
UniProt P28033: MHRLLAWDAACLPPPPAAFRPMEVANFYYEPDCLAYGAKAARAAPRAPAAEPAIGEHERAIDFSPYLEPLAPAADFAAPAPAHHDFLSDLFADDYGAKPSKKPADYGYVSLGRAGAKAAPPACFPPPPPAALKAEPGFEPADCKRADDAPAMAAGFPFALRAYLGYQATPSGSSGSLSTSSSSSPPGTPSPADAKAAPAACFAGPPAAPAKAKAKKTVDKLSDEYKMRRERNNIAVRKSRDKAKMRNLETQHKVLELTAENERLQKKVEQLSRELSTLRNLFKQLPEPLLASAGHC

T1: SIX1 (hSix1:myc:DDK) (human) (UniProt Q15475)
T1 sequence: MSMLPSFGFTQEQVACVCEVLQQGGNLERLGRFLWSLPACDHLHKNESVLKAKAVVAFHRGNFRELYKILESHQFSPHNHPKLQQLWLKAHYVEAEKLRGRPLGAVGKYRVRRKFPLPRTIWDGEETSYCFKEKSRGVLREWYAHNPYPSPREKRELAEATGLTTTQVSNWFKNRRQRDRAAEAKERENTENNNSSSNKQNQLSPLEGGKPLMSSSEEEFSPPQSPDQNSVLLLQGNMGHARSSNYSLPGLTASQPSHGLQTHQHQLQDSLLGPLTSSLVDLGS

B1: EBF2 (mEbf2:tGFP) (protein, UniProt O08792 1-575)
chain: MFGIQDTLGRGPALKDKSLGAEMDSVRSWVRNVGVVDANVAAQSGVALSRAHFEKQPPSNLRKSNFFHFVLALYDRQGQPVEIERTAFVDFVENDKEQGNEKTNNGTHYKLQLLYSNGVRTEQDLYVRLIDSVTKQPIAYEGQNKNPEMCRVLLTHEVMCSRCCEKKSCGNRNETPSDPVIIDRFFLKFFLKCNQNCLKTAGNPRDMRRFQVVLSTTVNVDGHVLAVSDNMFVHNNSKHGRRARRLDPSEATPCIKAISPSEGWTTGGAMVIIIGDNFFDGLQVVFGTMLVWSELITPHAIRVQTPPRHIPGVVEVTLSYKSKQFCKGAPGRFIYTALNEPTIDYGFQRLQKVIPRHPGDPERLAKEMLLKRAADLVEALYGTPHNNQDIILKRAADIAEALYSVPRNPSQIPALSSSPAHSGMMGINSYGSQLGVSISESTQGNNQGYIRNTSSISPRGYSSSSTPQQSNYSTSSNSMNGYSNVPMANLGVPGSPGFLNGSPTGSPYGIMSSSPTVGSSSTSSILPFSSSVFPAVKQKSAFAPVIRPQGSPSPACSSGNGNGFRAMTGLVVPPM

molecular target: T1, SIX1 (hSix1:myc:DDK) (human); assay: co-IP; HEK293 cells transfected with tagged constructs and harvested after three days; lysis buffer 50 mM Tris-HCl pH7.4, 150 mM NaCl, 1 mM EDTA, 0.1% NP40; 500 μg total protein incubated overnight at 4°C with anti-FLAG M2 affinity gel (SIX1:myc:DDK as bait); washes with lysis buffer and RIPA buffers; Western analysis

binding, binds:
C/EBPα (Cebpa:HA) (from UniProt P53566 1-359)
C/EBPβ (mCebpb) (from UniProt P28033 1-296)
B1
